{"source": "paper PMC7337926", "binders": {"B1": {"name": "HEN2 fused to the Gal4 activation domain (protein, UniProt Q9ZVW2 1-995)", "chain": "MSAQMEEPETLGKRKESESSKLRSDETPTPEPRTKRRSLKRACVHEVAVPNDYTPTKEETIHGTLDNPVFNGDMAKTYPFKLDPFQSVSVACLERKESILVSAHTSAGKTAVAEYAIAMAFRDKQRVIYTSPLKALSNQKYRELQHEFKDVGLMTGDVTLSPNASCLVMTTEILRAMLYRGSEVLKEVAWVIFDEIHYMKDRERGVVWEESIIFLPPAIKMVFLSATMSNATEFAEWICYLHKQPCHVVYTDFRPTPLQHYAFPMGGGGLYLVVDDNEQFREDSFVKMQDTFPKPKSNDGKKSANGKSGGRGAKGGGGPGDSDVYKIVKMIMERKFEPVIIFSFSRRECEQHALSMSKLDFNTDEEKEVVEQVFNNAMQCLNEEDRSLPAIELMLPLLQRGIAVHHSGLLPVIKELVELLFQEGLVKALFATETFAMGLNMPAKTVVFTAVKKWDGDSHRYIGSGEYIQMSGRAGRRGKDERGICIIMIDEQMEMNTLRDMMLGKPAPLLSTFRLSYYTILNLLSRAEGQFTAEHVIRHSFHQFQHEKALPDIGNKVSKLEEEAAILNASGEAEVAEYHNLQFDIAKHEKKLMSEIIRPERVLCFLDTGRLVKIREGGTDWGWGVVVNVVKNSSVGTGSASSHGGGYIVDTLLHCSTGFSENGAKPKPCPPRAGEKGEMHVVPVQLPLISALSRLRISVPSDLRPVEARQSILLALQELSSRFPLGFPKLHPVKDMNIQDTEIVDLVSQIEEVEQKLLAHPMHKSEDDQQIKSFQRKAEVNYEIQQLKSKMRDSQLQKFRDELKNRSRVLKKLGHIDADGVVQVKGRAACLIDTGDELLVTELMFNGTFNDLDHHQVAALASCFIPVDKSNEQVNLRNELTKPLQQLQDSARKIAEIQHECKLEIDVEEYVESTIRPFLMDVIYSWSKGASFAEIIQMTDIFEGSIIRSARRLDEFLNQLRAAAEAVGESSLESKFAAASESLRRGIMFANSLYL"}, "B2": {"name": "HEN2-RFP (protein, UniProt Q9ZVW2 1-995)", "chain": "MSAQMEEPETLGKRKESESSKLRSDETPTPEPRTKRRSLKRACVHEVAVPNDYTPTKEETIHGTLDNPVFNGDMAKTYPFKLDPFQSVSVACLERKESILVSAHTSAGKTAVAEYAIAMAFRDKQRVIYTSPLKALSNQKYRELQHEFKDVGLMTGDVTLSPNASCLVMTTEILRAMLYRGSEVLKEVAWVIFDEIHYMKDRERGVVWEESIIFLPPAIKMVFLSATMSNATEFAEWICYLHKQPCHVVYTDFRPTPLQHYAFPMGGGGLYLVVDDNEQFREDSFVKMQDTFPKPKSNDGKKSANGKSGGRGAKGGGGPGDSDVYKIVKMIMERKFEPVIIFSFSRRECEQHALSMSKLDFNTDEEKEVVEQVFNNAMQCLNEEDRSLPAIELMLPLLQRGIAVHHSGLLPVIKELVELLFQEGLVKALFATETFAMGLNMPAKTVVFTAVKKWDGDSHRYIGSGEYIQMSGRAGRRGKDERGICIIMIDEQMEMNTLRDMMLGKPAPLLSTFRLSYYTILNLLSRAEGQFTAEHVIRHSFHQFQHEKALPDIGNKVSKLEEEAAILNASGEAEVAEYHNLQFDIAKHEKKLMSEIIRPERVLCFLDTGRLVKIREGGTDWGWGVVVNVVKNSSVGTGSASSHGGGYIVDTLLHCSTGFSENGAKPKPCPPRAGEKGEMHVVPVQLPLISALSRLRISVPSDLRPVEARQSILLALQELSSRFPLGFPKLHPVKDMNIQDTEIVDLVSQIEEVEQKLLAHPMHKSEDDQQIKSFQRKAEVNYEIQQLKSKMRDSQLQKFRDELKNRSRVLKKLGHIDADGVVQVKGRAACLIDTGDELLVTELMFNGTFNDLDHHQVAALASCFIPVDKSNEQVNLRNELTKPLQQLQDSARKIAEIQHECKLEIDVEEYVESTIRPFLMDVIYSWSKGASFAEIIQMTDIFEGSIIRSARRLDEFLNQLRAAAEAVGESSLESKFAAASESLRRGIMFANSLYL"}, "B3": {"name": "[35S]-methionine labeled HEN2 (in vitro translated) (protein, UniProt Q9ZVW2 1-995)", "chain": "MSAQMEEPETLGKRKESESSKLRSDETPTPEPRTKRRSLKRACVHEVAVPNDYTPTKEETIHGTLDNPVFNGDMAKTYPFKLDPFQSVSVACLERKESILVSAHTSAGKTAVAEYAIAMAFRDKQRVIYTSPLKALSNQKYRELQHEFKDVGLMTGDVTLSPNASCLVMTTEILRAMLYRGSEVLKEVAWVIFDEIHYMKDRERGVVWEESIIFLPPAIKMVFLSATMSNATEFAEWICYLHKQPCHVVYTDFRPTPLQHYAFPMGGGGLYLVVDDNEQFREDSFVKMQDTFPKPKSNDGKKSANGKSGGRGAKGGGGPGDSDVYKIVKMIMERKFEPVIIFSFSRRECEQHALSMSKLDFNTDEEKEVVEQVFNNAMQCLNEEDRSLPAIELMLPLLQRGIAVHHSGLLPVIKELVELLFQEGLVKALFATETFAMGLNMPAKTVVFTAVKKWDGDSHRYIGSGEYIQMSGRAGRRGKDERGICIIMIDEQMEMNTLRDMMLGKPAPLLSTFRLSYYTILNLLSRAEGQFTAEHVIRHSFHQFQHEKALPDIGNKVSKLEEEAAILNASGEAEVAEYHNLQFDIAKHEKKLMSEIIRPERVLCFLDTGRLVKIREGGTDWGWGVVVNVVKNSSVGTGSASSHGGGYIVDTLLHCSTGFSENGAKPKPCPPRAGEKGEMHVVPVQLPLISALSRLRISVPSDLRPVEARQSILLALQELSSRFPLGFPKLHPVKDMNIQDTEIVDLVSQIEEVEQKLLAHPMHKSEDDQQIKSFQRKAEVNYEIQQLKSKMRDSQLQKFRDELKNRSRVLKKLGHIDADGVVQVKGRAACLIDTGDELLVTELMFNGTFNDLDHHQVAALASCFIPVDKSNEQVNLRNELTKPLQQLQDSARKIAEIQHECKLEIDVEEYVESTIRPFLMDVIYSWSKGASFAEIIQMTDIFEGSIIRSARRLDEFLNQLRAAAEAVGESSLESKFAAASESLRRGIMFANSLYL", "modifications": "[35S]-methionine labeled"}}, "key": {"[1]": {"target": "T1, SE fused to the Gal4 DNA binding domain (Arabidopsis thaliana) (UniProt Q9ZVD0)", "T1 sequence": "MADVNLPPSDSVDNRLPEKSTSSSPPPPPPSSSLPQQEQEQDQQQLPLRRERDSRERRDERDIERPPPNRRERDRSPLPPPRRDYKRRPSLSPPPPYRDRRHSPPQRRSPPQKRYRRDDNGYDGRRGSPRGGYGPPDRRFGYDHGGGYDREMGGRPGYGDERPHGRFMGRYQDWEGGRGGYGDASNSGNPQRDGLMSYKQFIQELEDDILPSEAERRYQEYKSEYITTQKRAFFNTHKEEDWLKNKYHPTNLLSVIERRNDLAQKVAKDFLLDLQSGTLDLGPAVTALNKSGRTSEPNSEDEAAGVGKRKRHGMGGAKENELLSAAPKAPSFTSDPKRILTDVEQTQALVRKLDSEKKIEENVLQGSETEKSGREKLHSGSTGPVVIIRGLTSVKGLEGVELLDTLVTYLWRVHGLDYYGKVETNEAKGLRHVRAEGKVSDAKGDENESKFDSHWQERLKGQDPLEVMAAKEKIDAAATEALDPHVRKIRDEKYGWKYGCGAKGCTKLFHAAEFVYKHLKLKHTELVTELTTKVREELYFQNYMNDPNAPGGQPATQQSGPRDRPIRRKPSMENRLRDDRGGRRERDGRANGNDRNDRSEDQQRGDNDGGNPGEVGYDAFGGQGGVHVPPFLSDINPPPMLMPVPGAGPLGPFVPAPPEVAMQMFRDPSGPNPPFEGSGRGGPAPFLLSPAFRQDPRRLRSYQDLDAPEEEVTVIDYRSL", "experiment": "two-hybrid; Matchmaker Gal4 system, S. cerevisiae Y2HGold, 28°C; growth on medium lacking L, T, H, A and on medium with aureobasidin and X-αGal"}, "[2]": {"target": "T2, SE-GFP (Arabidopsis thaliana) (UniProt Q9ZVD0)", "T2 sequence": "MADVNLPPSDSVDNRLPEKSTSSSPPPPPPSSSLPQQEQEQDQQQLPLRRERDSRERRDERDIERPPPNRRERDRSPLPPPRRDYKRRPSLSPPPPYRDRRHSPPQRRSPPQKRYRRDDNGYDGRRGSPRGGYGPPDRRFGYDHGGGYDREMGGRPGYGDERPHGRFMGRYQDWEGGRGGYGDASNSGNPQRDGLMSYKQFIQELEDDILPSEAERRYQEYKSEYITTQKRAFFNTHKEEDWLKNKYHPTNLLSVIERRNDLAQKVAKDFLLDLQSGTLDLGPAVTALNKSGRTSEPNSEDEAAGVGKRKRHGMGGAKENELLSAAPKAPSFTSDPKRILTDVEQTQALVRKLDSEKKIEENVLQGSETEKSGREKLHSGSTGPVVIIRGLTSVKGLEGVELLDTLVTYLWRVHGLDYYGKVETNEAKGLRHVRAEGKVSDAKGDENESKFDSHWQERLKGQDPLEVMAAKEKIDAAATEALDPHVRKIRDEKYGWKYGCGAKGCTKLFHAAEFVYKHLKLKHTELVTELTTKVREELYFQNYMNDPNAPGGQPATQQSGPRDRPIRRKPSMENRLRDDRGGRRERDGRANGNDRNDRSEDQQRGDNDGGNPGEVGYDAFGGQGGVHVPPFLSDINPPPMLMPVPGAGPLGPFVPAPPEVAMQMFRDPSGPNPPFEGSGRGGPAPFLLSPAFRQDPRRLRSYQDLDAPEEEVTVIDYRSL", "experiment": "FRET or BRET; FRET-FLIM in Arabidopsis protoplasts; GFP fusion as donor, RFP fusion as acceptor; fluorescence lifetime of the donor against the PRP39A-RFP control"}, "[3]": {"target": "T3, MBP-SE (Arabidopsis thaliana) (UniProt Q9ZVD0)", "T3 sequence": "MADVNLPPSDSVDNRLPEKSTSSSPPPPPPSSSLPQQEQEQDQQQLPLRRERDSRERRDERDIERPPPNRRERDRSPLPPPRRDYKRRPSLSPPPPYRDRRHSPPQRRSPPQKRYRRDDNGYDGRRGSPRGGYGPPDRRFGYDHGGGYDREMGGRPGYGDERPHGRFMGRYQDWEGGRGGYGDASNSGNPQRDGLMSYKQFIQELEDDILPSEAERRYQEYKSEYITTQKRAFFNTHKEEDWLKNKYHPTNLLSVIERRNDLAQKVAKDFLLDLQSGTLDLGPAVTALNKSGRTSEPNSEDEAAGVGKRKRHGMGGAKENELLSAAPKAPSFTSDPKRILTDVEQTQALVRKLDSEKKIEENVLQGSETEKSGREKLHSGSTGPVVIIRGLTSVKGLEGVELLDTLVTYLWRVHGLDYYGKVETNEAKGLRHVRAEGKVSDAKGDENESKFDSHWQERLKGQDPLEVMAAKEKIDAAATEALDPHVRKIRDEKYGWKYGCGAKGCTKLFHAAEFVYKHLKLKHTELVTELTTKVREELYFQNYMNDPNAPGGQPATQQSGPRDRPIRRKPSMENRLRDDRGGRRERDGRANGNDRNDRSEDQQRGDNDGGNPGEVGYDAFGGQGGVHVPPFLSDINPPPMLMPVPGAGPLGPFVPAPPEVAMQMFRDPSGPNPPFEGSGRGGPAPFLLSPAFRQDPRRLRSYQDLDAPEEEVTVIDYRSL", "experiment": "pull-down; MBP-SE bound to amylose beads, [35S]-labelled in vitro translated proteins added, 2 h at 4°C, 20 mM Tris HCl pH 7.5, 200 mM NaCl, 1 mM EDTA; samples treated with RNase; eluted with 20 mM maltose; only the target purified"}}, "note": "Results are given in words; binding and its absence hold for the method and conditions named. For part of these data: In cells and extracts the contact can be indirect. Sequences can lack the tags named with a protein.", "data": [{"binder": "B1", "values": [{"measurement": "binding", "setting": "[1]", "value": "no binding"}]}, {"binder": "B2", "values": [{"measurement": "binding", "setting": "[2]", "value": "no binding"}]}, {"binder": "B3", "values": [{"measurement": "binding", "setting": "[3]", "value": "no binding"}]}]}
